# The list shows a part of the results.
# B1: PX14343F-bfa-562-20-562 (Bacteroides fragilis) (protein)
# chain: CDDFLDSFPQDTVTNENFWKSKEDADKVLVDIYASLLPKDAIFFDEAMSDNAYLVWDWWGGAQQVANGSYTTSGEIPTNRWNGSYEVIRKCWFLLEGIEKIEDISEQDKNKIIGETYFMLAYNYYVLTSYFGDVPLVTKTLAIPESKQLVRTPKAEVVDYAINKLKEAAVMLEGLSQEKGRVTADACRFLIARMYLYNGDYSNVLETVKLLEGKYQLYREGDTPYEDLFSGVAENSCEVILSVVCDKRVGEIYTSHGGNGIMLLKGITGEDPYRGVTPSGSLVDAYPMADGRLIHEAGSSYDPKKPYEGRDPRFYQSIVYPTGQIKYLDVETGTVKERLYDPEDPTTVPEHQYNYSQPSATGYMWNKYIDYSVYAMNSVWDCTNDIIVFRYADVLLMKAEALLQTKGESAKEEVCNLIDQLRDRCSCGRVHRENYNSKDELMELLKNERRIELANEGLRYMDLIRWKDAEKNTIVTGVGLTGQMYGAYMRKDGVGKDDKTVDVDNTPRRYIETRYFNASKGYLFPIPQKERDLNPNLTQNPNW
# Tests used:
# Experiment in all cases: glycan array binding signal (z-score within array); higher = stronger binding
# Details in all cases: glycan notation: IUPAC condensed, linker removed
# [1] = molecular target: Gal(b1-3)GlcNAc(b1-2)Man(a1-3)[Gal(b1-3)GlcNAc(b1-2)Man(a1-6)]Man(b1-4)GlcNAc(b1-4)[Fuc(a1-6)]GlcNAc
# Summary of the method: (§1)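 Glycan array data were curated from 3228 arrays in the Consortium for Functional Glycomics database and kept only where the protein sequence was available. Glycan names were converted to IUPAC-condensed notation, and columns mapping to the same glycan were averaged. The binding signal is a within-array Z-score, averaged across arrays of the same protein sequence at different concentrations or buffers and across linkers. Negative Z-scores can be read as non-binding.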
# [2] = molecular target: Gal(b1-3)GlcNAc(b1-2)Man(a1-3)[GlcNAc(b1-4)][Gal(b1-3)GlcNAc(b1-2)Man(a1-6)]Man(b1-4)GlcNAc(b1-4)GlcNAc
# Summary of the method: as §1
# [3] = molecular target: Gal(b1-3)GlcNAc(b1-2)[Gal(b1-3)GlcNAc(b1-6)]Man(a1-6)[Gal(b1-3)GlcNAc(b1-2)Man(a1-3)]Man(b1-4)GlcNAc(b1-4)GlcNAc
# Summary of the method: as §1
# [4] = molecular target: Gal(b1-3)GlcNAc(b1-3)Gal(b1-3)GlcNAc
# Summary of the method: as §1
# [5] = molecular target: Gal(b1-3)GlcNAc(b1-3)Gal(b1-4)Glc
# Summary of the method: as §1
# [6] = molecular target: Gal(b1-3)GlcNAc(b1-3)Gal(b1-4)GlcNAc
# Summary of the method: as §1
# [7] = molecular target: Gal(b1-3)GlcNAc(b1-3)Gal(b1-4)GlcNAc(b1-2)Man(a1-3)[Gal(b1-3)GlcNAc(b1-3)Gal(b1-4)GlcNAc(b1-2)Man(a1-6)]Man(b1-4)GlcNAc(b1-4)GlcNAc
# Summary of the method: as §1
# [8] = molecular target: Gal(b1-3)GlcNAc(b1-3)Gal(b1-4)GlcNAc(b1-2)[Gal(b1-3)GlcNAc(b1-3)Gal(b1-4)GlcNAc(b1-6)]Man(a1-6)[Gal(b1-3)GlcNAc(b1-3)Gal(b1-4)GlcNAc(b1-2)Man(a1-3)]Man(b1-4)GlcNAc(b1-4)[Fuc(a1-6)]GlcNAc
# Summary of the method: as §1
# [9] = molecular target: Gal(b1-3)GlcNAc(b1-3)Gal(b1-4)GlcNAc(b1-3)Gal(b1-4)GlcNAc(b1-2)[Gal(b1-3)GlcNAc(b1-3)Gal(b1-4)GlcNAc(b1-3)Gal(b1-4)GlcNAc(b1-6)]Man(a1-6)[Gal(b1-3)GlcNAc(b1-3)Gal(b1-4)GlcNAc(b1-3)Gal(b1-4)GlcNAc(b1-2)Man(a1-3)]Man(b1-4)GlcNAc(b1-4)[Fuc(a1-6)]GlcNAc
# Summary of the method: as §1
# [10] = molecular target: Gal(b1-3)GlcNAc(b1-3)Gal(b1-4)GlcNAc(b1-6)[Gal(b1-3)GlcNAc(b1-3)]Gal(b1-4)Glc
# Summary of the method: as §1
# [11] = molecular target: Gal(b1-3)GlcNAc(b1-3)Gal(b1-4)[Fuc(a1-3)]GlcNAc
# Summary of the method: as §1
# [12] = molecular target: Gal(b1-3)GlcNAc(b1-3)Gal(b1-4)[Fuc(a1-3)]GlcNAc(b1-6)[Gal(b1-3)GlcNAc(b1-3)]Gal(b1-4)Glc
# Summary of the method: as §1
# [13] = molecular target: Gal(b1-3)GlcNAc(b1-3)GalNAc
# Summary of the method: as §1
# [14] = molecular target: Gal(b1-3)GlcNAc(b1-6)Gal(b1-4)GlcNAc
# Summary of the method: as §1
# [15] = molecular target: Gal(b1-3)GlcNAc(b1-6)GalNAc
# Summary of the method: as §1
# [16] = molecular target: Gal(b1-3)GlcNAc(b1-6)[Gal(b1-3)]GalNAc
# Summary of the method: as §1
# [17] = molecular target: Gal(b1-3)GlcNAc6S
# Summary of the method: as §1
# [18] = molecular target: Gal(b1-3)[Fuc(a1-4)]GlcNAc
# Summary of the method: as §1
# [19] = molecular target: Gal(b1-3)[Fuc(a1-4)]GlcNAc(b1-2)Man
# Summary of the method: as §1
# [20] = molecular target: Gal(b1-3)[Fuc(a1-4)]GlcNAc(b1-2)Man(a1-3)[Gal(b1-3)[Fuc(a1-4)]GlcNAc(b1-2)Man(a1-6)]Man(b1-4)GlcNAc(b1-4)[Fuc(a1-6)]GlcNAc
# Summary of the method: as §1
# [21] = molecular target: Gal(b1-3)[Fuc(a1-4)]GlcNAc(b1-3)Gal(b1-3)[Fuc(a1-4)]GlcNAc
# Summary of the method: as §1
# [22] = molecular target: Gal(b1-3)[Fuc(a1-4)]GlcNAc(b1-3)Gal(b1-4)[Fuc(a1-3)]GlcNAc
# Summary of the method: as §1
# [23] = molecular target: Gal(b1-3)[Fuc(a1-4)]GlcNAc(b1-6)GalNAc
# Summary of the method: as §1
# [24] = molecular target: Gal(b1-3)[GlcNAc(b1-6)]GalNAc
# Summary of the method: as §1
# [25] = molecular target: Gal(b1-3)[Neu5Ac(a2-6)]GalNAc
# Summary of the method: as §1
# [26] = molecular target: Gal(b1-3)[Neu5Ac(a2-6)]GlcNAc(b1-4)Gal(b1-4)Glc
# Summary of the method: as §1
# [27] = molecular target: Gal(b1-3)[Neu5Ac(b2-6)]GalNAc
# Summary of the method: as §1
# [28] = molecular target: Gal(b1-4)Gal
# Summary of the method: as §1
# [29] = molecular target: Gal(b1-4)GalNAc(a1-3)[Fuc(a1-2)]Gal(b1-4)GlcNAc
# Summary of the method: as §1
# [30] = molecular target: Gal(b1-4)GalNAc(b1-3)[Fuc(a1-2)]Gal(b1-4)GlcNAc
# Summary of the method: as §1
binder,measurement,setting,value
B1,glycan array binding signal (z-score),[1],0.346
same,glycan array binding signal (z-score),[2],0.56
same,glycan array binding signal (z-score),[3],-0.409
same,glycan array binding signal (z-score),[4],0.064
same,glycan array binding signal (z-score),[5],-0.151
same,glycan array binding signal (z-score),[6],0.027
same,glycan array binding signal (z-score),[7],-0.187
same,glycan array binding signal (z-score),[8],1.83
same,glycan array binding signal (z-score),[9],1.38
same,glycan array binding signal (z-score),[10],-0.681
same,glycan array binding signal (z-score),[11],-0.916
same,glycan array binding signal (z-score),[12],-0.809
same,glycan array binding signal (z-score),[13],-0.73
same,glycan array binding signal (z-score),[14],-0.369
same,glycan array binding signal (z-score),[15],-0.588
same,glycan array binding signal (z-score),[16],0.216
same,glycan array binding signal (z-score),[17],-0.201
same,glycan array binding signal (z-score),[18],-0.027
same,glycan array binding signal (z-score),[19],0.213
same,glycan array binding signal (z-score),[20],-0.279
same,glycan array binding signal (z-score),[21],-0.334
same,glycan array binding signal (z-score),[22],-0.432
same,glycan array binding signal (z-score),[23],-0.408
same,glycan array binding signal (z-score),[24],-0.267
same,glycan array binding signal (z-score),[25],-0.479
same,glycan array binding signal (z-score),[26],-0.546
same,glycan array binding signal (z-score),[27],-0.885
same,glycan array binding signal (z-score),[28],-0.051
same,glycan array binding signal (z-score),[29],-0.735
same,glycan array binding signal (z-score),[30],-1.05

# Given tab-delimited: part of the list above.
binder	measurement	setting	value
B1	glycan array binding signal (z-score)	[24]	-0.267
same	glycan array binding signal (z-score)	[25]	-0.479
same	glycan array binding signal (z-score)	[26]	-0.546
same	glycan array binding signal (z-score)	[27]	-0.885
same	glycan array binding signal (z-score)	[28]	-0.051
same	glycan array binding signal (z-score)	[29]	-0.735
same	glycan array binding signal (z-score)	[30]	-1.05

# Reference: the supplement of paper PMC8728848
